Measurements published in paper PMC12186844 (ACS Chemical Neuroscience, 2025).

By UniProt entry, the sequences of proteins in these tests, tags left out.
UniProt P14416, whole entry: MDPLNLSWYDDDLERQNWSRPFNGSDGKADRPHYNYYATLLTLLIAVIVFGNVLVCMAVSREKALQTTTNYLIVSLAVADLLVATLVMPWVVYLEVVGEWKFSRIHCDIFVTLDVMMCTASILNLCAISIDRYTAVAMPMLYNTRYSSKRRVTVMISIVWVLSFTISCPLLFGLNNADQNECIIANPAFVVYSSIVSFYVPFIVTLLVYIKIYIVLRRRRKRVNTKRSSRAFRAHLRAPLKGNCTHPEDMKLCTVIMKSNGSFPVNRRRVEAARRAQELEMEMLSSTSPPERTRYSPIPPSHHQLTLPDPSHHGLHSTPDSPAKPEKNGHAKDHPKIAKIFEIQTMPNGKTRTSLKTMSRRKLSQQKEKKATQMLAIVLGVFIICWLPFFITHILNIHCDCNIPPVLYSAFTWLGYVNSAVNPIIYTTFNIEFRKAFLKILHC

Target: D2LR (Homo sapiens, UniProt P14416)
Assay: inhibition of forskolin-stimulated cAMP production, BRET biosensor;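 further: Flp-In-CHO cells stably expressing CAMYEL cAMP BRET sensor, agonist plus 10 µM forskolin, net BRET after forskolin-vehicle subtraction, parameters from complete operational model of allosterism and agonism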
Format: cell-based

Question: What does the source list for CCN(CC)C(=O)N[C@H]1C=C2c3cccc4[nH]cc(c34)C[C@H]2N(C)C1 [lisuride, reference compound]?
Answer: LogτA: 0.62 ± 0.05; τA: 4.2
